The results in this text go back to article PMC5460035 (Nature Communications, 2017).

Protein sequences, listed by entry. Tags and fused reporters are not part of them.
UniProt Q9H6T3: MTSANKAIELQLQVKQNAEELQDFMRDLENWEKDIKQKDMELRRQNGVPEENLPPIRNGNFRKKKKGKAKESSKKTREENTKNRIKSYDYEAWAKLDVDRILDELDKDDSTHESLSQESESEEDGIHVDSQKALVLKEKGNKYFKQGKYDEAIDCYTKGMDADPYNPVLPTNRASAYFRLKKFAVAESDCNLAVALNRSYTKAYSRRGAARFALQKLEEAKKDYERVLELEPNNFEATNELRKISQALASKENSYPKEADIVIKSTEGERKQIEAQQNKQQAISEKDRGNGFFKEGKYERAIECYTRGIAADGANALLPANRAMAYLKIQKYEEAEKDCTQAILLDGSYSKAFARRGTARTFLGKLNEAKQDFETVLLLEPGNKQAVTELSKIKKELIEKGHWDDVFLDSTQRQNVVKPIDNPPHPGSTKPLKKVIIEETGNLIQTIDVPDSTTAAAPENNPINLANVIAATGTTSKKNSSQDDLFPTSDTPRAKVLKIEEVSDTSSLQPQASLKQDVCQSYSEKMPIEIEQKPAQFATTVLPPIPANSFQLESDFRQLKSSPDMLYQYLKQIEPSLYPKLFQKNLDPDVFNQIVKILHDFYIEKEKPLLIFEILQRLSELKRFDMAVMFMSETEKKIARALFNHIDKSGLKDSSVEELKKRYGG
UniProt O94763: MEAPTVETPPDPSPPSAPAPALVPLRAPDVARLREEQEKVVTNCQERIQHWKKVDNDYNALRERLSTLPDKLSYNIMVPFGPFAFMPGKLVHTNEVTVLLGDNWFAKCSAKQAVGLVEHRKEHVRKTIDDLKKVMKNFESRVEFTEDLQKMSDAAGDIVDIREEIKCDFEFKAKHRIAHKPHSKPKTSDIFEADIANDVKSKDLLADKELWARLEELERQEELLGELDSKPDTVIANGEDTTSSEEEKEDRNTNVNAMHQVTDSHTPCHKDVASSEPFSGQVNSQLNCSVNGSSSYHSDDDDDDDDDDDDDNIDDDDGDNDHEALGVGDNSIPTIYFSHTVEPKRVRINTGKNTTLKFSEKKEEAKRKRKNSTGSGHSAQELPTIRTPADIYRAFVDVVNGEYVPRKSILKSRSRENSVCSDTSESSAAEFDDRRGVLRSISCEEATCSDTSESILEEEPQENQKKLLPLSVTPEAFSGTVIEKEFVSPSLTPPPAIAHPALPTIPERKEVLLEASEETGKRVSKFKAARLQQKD

No constants are given. Whether binding was seen depends on the method and setting. Binding seen in cells or lysates may run through a third protein. Some results given as binding are weak or reduced against the parent protein; the word gives no strength.

For one test, the target named is FLAG-RPAP3 (human) (UniProt Q9H6T3). The test can be described thus: co-IP; FLAG-tagged bait transfected in HeLa S3 cells; anti-FLAG M2 magnetic beads, CoIP buffer (250 mM NaCl, 0.5% NP-40), 2 h at 4 °C; western blot of endogenous proteins.
The next test addresses FLAG-URI1 (UniProt O94763). Described as above.

B1: TSC1 (protein, UniProt Q92574 1-1164)
chain: MAQQANVGELLAMLDSPMLGVRDDVTAVFKENLNSDRGPMLVNTLVDYYLETSSQPALHILTTLQEPHDKHLLDRINEYVGKAATRLSILSLLGHVIRLQPSWKHKLSQAPLLPSLLKCLKMDTDVVVLTTGVLVLITMLPMIPQSGKQHLLDFFDIFGRLSSWCLKKPGHVAEVYLVHLHASVYALFHRLYGMYPCNFVSFLRSHYSMKENLETFEEVVKPMMEHVRIHPELVTGSKDHELDPRRWKRLETHDVVIECAKISLDPTEASYEDGYSVSHQISARFPHRSADVTTSPYADTQNSYGCATSTPYSTSRLMLLNMPGQLPQTLSSPSTRLITEPPQATLWSPSMVCGMTTPPTSPGNVPPDLSHPYSKVFGTTAGGKGTPLGTPATSPPPAPLCHSDDYVHISLPQATVTPPRKEERMDSARPCLHRQHHLLNDRGSEEPPGSKGSVTLSDLPGFLGDLASEEDSIEKDKEEAAISRELSEITTAEAEPVVPRGGFDSPFYRDSLPGSQRKTHSAASSSQGASVNPEPLHSSLDKLGPDTPKQAFTPIDLPCGSADESPAGDRECQTSLETSIFTPSPCKIPPPTRVGFGSGQPPPYDHLFEVALPKTAHHFVIRKTEELLKKAKGNTEEDGVPSTSPMEVLDRLIQQGADAHSKELNKLPLPSKSVDWTHFGGSPPSDEIRTLRDQLLLLHNQLLYERFKRQQHALRNRRLLRKVIKAAALEEHNAAMKDQLKLQEKDIQMWKVSLQKEQARYNQLQEQRDTMVTKLHSQIRQLQHDREEFYNQSQELQTKLEDCRNMIAELRIELKKANNKVCHTELLLSQVSQKLSNSESVQQQMEFLNRQLLVLGEVNELYLEQLQNKHSDTTKEVEMMKAAYRKELEKNRSHVLQQTQRLDTSQKRILELESHLAKKDHLLLEQKKYLEDVKLQARGQLQAAESRYEAQKRITQVFELEILDLYGRLEKDGLLKKLEEEKAEAAEAAEERLDCCNDGCSDSMVGHNEEASGHNGETKTPRPSSARGSSGSRGGGGSSSSSSELSTPEKPPHQRAGPFSSRWETTMGEASASIPTTVGSLPSSKSFLGMKARELFRNKSESQCDEDGMTSSLSESLKTELGKDLGVEAKIPLNLDGPHPSPPTPDSVGQLHIMDYNETHHEHS
With B1, the binding result in the test with FLAG-RPAP3 (human) and with FLAG-URI1 was “binds” each time.
